Publication PMC11729909
Results are given in words; binding and its absence hold for the method and conditions named. Binding seen in cells or lysates may run through a third protein. Some entries that bind do so weakly or less than the wild type. For some assays here: Sequences can lack the tags named with a protein.

Sequences of proteins named here, by UniProt entry; tags and fusion partners are left off.
UniProt Q13535: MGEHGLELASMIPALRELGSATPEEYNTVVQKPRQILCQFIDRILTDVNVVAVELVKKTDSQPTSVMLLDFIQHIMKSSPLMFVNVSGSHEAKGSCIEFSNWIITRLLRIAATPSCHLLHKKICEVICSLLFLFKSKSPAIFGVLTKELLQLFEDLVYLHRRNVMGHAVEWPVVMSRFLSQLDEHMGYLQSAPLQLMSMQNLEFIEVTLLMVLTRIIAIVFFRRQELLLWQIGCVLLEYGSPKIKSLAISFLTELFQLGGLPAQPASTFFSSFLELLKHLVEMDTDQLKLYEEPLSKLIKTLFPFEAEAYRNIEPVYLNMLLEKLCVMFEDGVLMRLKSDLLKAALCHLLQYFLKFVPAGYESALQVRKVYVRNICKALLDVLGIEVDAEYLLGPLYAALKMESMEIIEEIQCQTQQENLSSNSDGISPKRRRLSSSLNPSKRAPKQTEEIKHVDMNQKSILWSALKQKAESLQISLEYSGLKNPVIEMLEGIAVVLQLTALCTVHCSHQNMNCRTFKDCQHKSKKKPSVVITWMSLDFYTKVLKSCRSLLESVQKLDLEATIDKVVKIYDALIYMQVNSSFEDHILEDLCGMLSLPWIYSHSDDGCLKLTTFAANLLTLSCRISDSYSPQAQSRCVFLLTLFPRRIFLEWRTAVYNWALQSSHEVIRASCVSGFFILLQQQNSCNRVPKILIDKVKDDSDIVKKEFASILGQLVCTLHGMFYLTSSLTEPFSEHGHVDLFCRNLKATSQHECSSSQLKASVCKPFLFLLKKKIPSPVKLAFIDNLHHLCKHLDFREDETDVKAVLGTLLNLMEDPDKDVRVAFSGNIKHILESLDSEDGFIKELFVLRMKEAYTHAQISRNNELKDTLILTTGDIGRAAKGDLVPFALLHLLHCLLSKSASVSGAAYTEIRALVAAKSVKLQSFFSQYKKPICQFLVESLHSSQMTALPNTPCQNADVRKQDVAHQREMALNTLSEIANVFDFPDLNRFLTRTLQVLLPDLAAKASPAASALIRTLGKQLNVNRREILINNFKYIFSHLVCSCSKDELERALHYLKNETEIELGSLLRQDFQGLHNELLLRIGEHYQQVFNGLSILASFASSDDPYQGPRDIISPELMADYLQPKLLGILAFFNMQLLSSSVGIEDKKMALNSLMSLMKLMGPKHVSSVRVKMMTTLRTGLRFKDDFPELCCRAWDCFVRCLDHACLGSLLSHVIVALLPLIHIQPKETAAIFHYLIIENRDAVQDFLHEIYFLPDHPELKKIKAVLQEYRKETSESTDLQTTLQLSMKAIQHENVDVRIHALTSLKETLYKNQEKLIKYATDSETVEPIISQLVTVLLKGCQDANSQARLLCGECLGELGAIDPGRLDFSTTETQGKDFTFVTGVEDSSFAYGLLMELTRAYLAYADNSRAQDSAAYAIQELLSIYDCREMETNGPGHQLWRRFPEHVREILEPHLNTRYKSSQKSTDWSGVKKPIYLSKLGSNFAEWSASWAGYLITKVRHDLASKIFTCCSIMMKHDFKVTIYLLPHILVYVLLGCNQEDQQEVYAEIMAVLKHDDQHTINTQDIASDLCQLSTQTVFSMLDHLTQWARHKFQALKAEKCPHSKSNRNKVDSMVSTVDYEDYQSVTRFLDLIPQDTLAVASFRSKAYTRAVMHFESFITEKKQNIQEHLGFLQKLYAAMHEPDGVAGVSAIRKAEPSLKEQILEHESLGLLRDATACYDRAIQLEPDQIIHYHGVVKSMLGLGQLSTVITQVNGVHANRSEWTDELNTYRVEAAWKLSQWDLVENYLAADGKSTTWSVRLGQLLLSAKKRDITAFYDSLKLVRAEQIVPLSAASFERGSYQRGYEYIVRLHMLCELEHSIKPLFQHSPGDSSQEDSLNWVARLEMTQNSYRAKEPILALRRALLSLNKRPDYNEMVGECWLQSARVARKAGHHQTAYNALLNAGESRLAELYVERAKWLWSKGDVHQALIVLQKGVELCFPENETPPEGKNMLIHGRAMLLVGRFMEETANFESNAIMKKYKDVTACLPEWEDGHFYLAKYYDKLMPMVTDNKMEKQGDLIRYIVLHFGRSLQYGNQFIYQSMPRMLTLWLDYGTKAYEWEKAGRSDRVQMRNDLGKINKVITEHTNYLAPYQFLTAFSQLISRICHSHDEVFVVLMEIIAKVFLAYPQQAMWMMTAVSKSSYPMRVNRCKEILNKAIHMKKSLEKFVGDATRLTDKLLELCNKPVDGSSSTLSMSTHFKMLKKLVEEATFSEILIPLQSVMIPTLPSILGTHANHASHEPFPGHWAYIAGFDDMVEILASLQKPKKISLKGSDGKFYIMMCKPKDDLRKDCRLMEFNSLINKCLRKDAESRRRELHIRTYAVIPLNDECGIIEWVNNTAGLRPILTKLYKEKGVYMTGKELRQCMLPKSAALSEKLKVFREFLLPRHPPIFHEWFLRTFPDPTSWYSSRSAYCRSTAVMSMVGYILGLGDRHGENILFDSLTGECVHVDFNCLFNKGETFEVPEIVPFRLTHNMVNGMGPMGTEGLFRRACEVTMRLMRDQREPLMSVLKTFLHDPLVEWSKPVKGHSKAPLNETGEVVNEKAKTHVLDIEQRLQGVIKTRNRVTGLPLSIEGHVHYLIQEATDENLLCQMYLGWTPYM
UniProt P27694: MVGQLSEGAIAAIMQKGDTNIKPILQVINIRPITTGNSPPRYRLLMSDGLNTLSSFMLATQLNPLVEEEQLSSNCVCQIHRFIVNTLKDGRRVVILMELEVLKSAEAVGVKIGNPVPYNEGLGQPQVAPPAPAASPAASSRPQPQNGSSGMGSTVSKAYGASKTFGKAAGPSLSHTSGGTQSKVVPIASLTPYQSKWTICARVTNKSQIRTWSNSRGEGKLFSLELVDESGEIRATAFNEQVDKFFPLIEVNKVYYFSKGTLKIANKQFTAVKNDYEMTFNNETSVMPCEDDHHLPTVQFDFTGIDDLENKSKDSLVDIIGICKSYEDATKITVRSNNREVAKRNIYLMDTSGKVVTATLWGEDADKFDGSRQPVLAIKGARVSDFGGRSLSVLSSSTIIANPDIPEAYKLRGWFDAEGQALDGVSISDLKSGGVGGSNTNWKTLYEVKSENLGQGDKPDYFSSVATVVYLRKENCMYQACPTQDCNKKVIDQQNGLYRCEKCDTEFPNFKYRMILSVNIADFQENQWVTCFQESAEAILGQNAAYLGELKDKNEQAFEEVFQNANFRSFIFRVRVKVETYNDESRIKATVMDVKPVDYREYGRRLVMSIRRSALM

Experiments:
[1] = target: ATR (endogenous) (human (endogenous in HEK293T and H1975)) (UniProt Q13535); test: co-IP; endogenous immunoprecipitation from HEK293T lysate (NETN buffer: 100 mM NaCl, 1 mM EDTA, 20 mM Tris-HCl pH 8.0, 0.5% NP-40), antibody 4 h at 4 °C, protein-A beads 1 h; cells untreated or 2 mM HU for 1 h
[2] = target: T1, ATRIP (endogenous) (human (endogenous in HEK293T)) (UniProt Q8WXE1); test: as above
T1 sequence: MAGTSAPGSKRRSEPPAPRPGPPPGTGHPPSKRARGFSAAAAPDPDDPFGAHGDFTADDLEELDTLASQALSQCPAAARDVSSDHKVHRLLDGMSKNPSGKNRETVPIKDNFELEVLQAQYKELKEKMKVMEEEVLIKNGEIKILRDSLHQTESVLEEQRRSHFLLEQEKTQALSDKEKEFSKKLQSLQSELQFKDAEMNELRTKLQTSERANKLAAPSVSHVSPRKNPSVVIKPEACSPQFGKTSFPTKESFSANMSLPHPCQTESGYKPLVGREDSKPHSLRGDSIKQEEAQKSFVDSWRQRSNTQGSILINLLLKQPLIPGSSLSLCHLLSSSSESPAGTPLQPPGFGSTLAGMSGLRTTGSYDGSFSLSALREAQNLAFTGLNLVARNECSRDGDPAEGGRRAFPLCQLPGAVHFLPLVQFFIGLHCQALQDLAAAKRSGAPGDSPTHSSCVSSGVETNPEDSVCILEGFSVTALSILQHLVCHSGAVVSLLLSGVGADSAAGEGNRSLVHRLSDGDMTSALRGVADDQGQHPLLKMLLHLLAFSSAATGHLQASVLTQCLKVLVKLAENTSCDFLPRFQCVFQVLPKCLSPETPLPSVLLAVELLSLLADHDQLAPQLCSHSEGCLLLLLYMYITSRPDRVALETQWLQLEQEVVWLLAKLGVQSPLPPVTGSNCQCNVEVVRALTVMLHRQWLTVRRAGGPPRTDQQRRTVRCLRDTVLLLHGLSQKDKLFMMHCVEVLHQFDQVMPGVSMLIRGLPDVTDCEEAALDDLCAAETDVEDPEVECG

[3] = target: T2, CHK1 (endogenous) (human (endogenous in HEK293T)) (UniProt O14757); test: as above
T2 sequence: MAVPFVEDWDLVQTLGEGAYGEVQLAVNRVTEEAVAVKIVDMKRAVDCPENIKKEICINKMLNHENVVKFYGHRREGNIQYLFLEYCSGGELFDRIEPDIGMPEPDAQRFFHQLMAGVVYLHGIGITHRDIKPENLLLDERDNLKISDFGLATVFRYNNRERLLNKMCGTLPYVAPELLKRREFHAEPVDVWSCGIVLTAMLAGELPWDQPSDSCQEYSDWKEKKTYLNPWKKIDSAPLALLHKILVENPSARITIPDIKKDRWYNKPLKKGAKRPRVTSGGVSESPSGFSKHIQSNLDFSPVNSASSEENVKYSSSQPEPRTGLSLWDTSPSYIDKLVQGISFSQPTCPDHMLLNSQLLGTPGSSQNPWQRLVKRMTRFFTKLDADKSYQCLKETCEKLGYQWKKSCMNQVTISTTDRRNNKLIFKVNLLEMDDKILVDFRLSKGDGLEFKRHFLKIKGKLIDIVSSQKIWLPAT

[4] = target: RPA70 (endogenous) (human (endogenous in HEK293T)) (UniProt P27694); test: as above
[5] = target: T3, SFB-tagged OGT (human) (UniProt O15294); test: co-IP; HEK293T transfected with the indicated plasmids, lysed in NETN buffer, Anti-FLAG Affinity Gel 4 h at 4 °C, immunoblot; in some panels 2 mM HU, Thiamet-G, OGT siRNA, ATR inhibitors (VE-822, NU6027) or CHK1 inhibitors (Rabusertib, UCN-01)
T3 sequence: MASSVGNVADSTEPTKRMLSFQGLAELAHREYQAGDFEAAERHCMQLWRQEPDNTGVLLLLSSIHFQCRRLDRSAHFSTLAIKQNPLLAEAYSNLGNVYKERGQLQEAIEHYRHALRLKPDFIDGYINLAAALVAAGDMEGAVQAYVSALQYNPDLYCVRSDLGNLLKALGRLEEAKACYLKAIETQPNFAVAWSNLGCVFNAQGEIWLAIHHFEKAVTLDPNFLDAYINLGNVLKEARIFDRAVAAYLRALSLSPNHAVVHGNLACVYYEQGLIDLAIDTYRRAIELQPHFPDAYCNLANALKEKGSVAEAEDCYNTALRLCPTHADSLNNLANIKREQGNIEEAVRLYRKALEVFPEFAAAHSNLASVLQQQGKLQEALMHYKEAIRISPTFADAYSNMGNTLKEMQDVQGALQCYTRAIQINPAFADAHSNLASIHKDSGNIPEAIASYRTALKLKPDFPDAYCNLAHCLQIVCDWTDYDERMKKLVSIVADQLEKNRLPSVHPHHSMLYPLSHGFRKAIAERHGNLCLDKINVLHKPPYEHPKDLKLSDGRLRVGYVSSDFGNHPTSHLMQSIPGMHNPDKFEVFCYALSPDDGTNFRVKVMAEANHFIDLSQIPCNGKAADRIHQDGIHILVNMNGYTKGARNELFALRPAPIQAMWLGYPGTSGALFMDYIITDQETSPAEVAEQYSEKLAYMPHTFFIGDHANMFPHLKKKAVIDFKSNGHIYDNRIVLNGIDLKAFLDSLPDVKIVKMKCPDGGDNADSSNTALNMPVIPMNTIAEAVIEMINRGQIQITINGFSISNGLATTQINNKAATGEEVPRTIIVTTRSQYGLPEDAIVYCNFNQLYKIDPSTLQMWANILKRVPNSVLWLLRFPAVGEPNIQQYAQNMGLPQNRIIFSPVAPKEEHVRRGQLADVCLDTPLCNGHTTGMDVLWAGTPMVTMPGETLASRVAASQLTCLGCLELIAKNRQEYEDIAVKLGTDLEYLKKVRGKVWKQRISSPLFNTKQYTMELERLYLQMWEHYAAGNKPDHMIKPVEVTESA

Measured: binding

B1: FOXP1 (endogenous) (protein, UniProt Q9H334 1-677)
chain: MMQESGTETKSNGSAIQNGSGGSNHLLECGGLREGRSNGETPAVDIGAADLAHAQQQQQQALQVARQLLLQQQQQQQVSGLKSPKRNDKQPALQVPVSVAMMTPQVITPQQMQQILQQQVLSPQQLQVLLQQQQALMLQQQQLQEFYKKQQEQLQLQLLQQQHAGKQPKEQQQVATQQLAFQQQLLQMQQLQQQHLLSLQRQGLLTIQPGQPALPLQPLAQGMIPTELQQLWKEVTSAHTAEETTGNNHSSLDLTTTCVSSSAPSKTSLIMNPHASTNGQLSVHTPKRESLSHEEHPHSHPLYGHGVCKWPGCEAVCEDFQSFLKHLNSEHALDDRSTAQCRVQMQVVQQLELQLAKDKERLQAMMTHLHVKSTEPKAAPQPLNLVSSVTLSKSASEASPQSLPHTPTTPTAPLTPVTQGPSVITTTSMHTVGPIRRRYSDKYNVPISSADIAQNQEFYKNAEVRPPFTYASLIRQAILESPEKQLTLNEIYNWFTRMFAYFRRNAATWKNAVRHNLSLHKCFVRVENVKGAVWTVDEVEFQKRRPQKISGNPSLIKNMQSSHAYCTPLNAALQASMAENSIPLYTTASMGNPTLGNLASAIREELNGAMEHTNSNESDSSPGRSPMQAVHPVHVKEEPLDPEEAEGPLSLVTTANHSPDFDHDRDYEDEPVNEDME
binds: all assays above
